The record followed here is PMC3218952.

Sequences of proteins named here, by UniProt entry; tags and fusion partners are left off.
UniProt P43268: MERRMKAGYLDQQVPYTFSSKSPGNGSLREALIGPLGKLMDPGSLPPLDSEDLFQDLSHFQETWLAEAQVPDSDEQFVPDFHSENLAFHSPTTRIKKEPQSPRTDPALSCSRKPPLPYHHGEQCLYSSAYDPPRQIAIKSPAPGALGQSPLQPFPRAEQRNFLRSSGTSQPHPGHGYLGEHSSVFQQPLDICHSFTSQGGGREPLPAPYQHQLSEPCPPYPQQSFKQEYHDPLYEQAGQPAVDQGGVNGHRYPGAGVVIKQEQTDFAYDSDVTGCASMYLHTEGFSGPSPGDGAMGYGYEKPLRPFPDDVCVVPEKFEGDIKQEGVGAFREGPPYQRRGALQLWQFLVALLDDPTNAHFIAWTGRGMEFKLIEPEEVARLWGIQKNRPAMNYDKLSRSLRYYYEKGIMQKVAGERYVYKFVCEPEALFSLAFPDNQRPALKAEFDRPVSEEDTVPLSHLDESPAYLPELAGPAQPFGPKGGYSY
UniProt P05412: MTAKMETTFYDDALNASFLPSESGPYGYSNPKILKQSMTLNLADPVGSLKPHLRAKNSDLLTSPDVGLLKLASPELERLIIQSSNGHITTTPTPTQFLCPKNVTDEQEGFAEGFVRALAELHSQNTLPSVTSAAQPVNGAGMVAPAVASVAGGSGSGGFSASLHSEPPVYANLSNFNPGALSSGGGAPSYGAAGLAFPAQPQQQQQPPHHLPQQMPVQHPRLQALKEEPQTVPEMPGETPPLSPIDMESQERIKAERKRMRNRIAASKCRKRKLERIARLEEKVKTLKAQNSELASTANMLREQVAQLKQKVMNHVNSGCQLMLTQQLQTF

In this assay the target is Polyomavirus enhancer activator 3 (PEA3/E1AF/ETV4) (UniProt P43268). Description: co-IP; MDA-MB-231 cells transfected with PEA3-pcDNA3.1 for 48 h, cross-linked with 1% formaldehyde, lysed in SDS lysis buffer and sonicated; diluted lysate incubated overnight with PEA3 antibody (sc-113X) or mouse IgG, protein G-plus agarose, washed three times in PBS; Western blot for PEA3 and c-JUN. (In general: A western blot detects proteins with antibodies after separation by electrophoresis.)

Results are given in words; binding and its absence hold for the method and conditions named. In cells and extracts the contact can be indirect. Some results given as binding are weak or reduced against the parent protein; the word gives no strength.

Consider c-JUN (from UniProt P05412 1-331), for which the binding result was “binds”.
